Assay results taken from patent US20100028355A1.

By UniProt entry, the sequences of proteins in these tests, tags left out. Residues count along the entry.
UniProt P35991, residues 2-659: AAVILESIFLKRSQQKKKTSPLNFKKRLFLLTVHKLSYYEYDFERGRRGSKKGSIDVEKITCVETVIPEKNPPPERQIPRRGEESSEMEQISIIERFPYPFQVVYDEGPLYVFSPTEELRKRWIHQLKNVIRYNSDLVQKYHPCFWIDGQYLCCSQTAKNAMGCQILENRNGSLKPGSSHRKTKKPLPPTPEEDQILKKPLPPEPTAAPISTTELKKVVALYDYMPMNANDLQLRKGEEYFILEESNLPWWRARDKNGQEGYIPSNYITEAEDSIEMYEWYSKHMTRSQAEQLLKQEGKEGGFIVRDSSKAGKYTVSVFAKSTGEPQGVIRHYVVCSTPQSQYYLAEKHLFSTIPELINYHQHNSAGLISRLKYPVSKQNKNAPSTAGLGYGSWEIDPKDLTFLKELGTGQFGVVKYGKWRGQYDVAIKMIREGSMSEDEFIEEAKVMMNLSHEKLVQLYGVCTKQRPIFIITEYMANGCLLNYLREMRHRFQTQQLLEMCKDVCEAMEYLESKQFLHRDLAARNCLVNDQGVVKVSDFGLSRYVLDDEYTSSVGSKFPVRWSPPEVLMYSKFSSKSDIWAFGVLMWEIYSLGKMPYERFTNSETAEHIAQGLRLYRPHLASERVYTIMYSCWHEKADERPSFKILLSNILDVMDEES

Target: Bruton's tyrosine kinase (BTK) (mouse) (UniProt P35991)
Experiment: GST pull-down from mouse bone marrow cell lysate, Coomassie gel band identified by mass spectrometry

binding: binds
B1: GST-HIMF fusion protein (protein, mouse, UniProt Q9EP95 24-111, looked up, not shown: a dimerising Fc or GST)
chain: DETIEIIVENKVKELLANPANYPSTVTKTLSCTSVKTMNRWASCPAGMTATGCACGFACGSWEIQSGDTCNCLCLLVDWTTARCCQLS

Results are given in words; binding and its absence hold for the method and conditions named. Binding seen in cells or lysates may run through a third protein. These calls come from enrichment with a bait or labelling near it, and not all partners need be listed. Where a sequence is shown, tags or fusion partners need not be part of it.
